PubChem BioAssay AID602196 | INSERM | 2012

Assay: 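Knock-downs that protect lung cancer cells from cisplatin or sensitise them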
Cells: human A549 lung cancer cells
Reagents: siRNA pair against human genes
Timing: 48 h transfection before cisplatin; time from cisplatin to read-out not stated
Challenge: cisplatin at a dose killing half of control-siRNA cells; exact dose and duration not given
Measured: 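Shift in cisplatin death relative to control siRNA, from -50 (all cells die) to +50 (no cells die); siRNAs harmful on their own scored 0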
Scale: two-siRNA summed score (-2 to +2): higher = both siRNAs protect from cisplatin killing; -2 means both sensitise; mean protection from cisplatin (shift in death) and protection from cisplatin (shift in death), siRNA C and protection from cisplatin (shift in death), siRNA D: higher = protection from cisplatin killing
Hit rule: 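siRNAs harmful alone (LDH or WST-1) get 0; others get +1 for less and -1 for more cisplatin killing; genes are active when the two siRNAs give the same sign, summing to ±2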
Meaning of the calls: active = both siRNAs shift cisplatin killing the same way; inactive = no consistent shift, or siRNA harmful alone
Shown is a random part of about 23,000 deposited reagents. Of all reagents, 455 (2%) got an active call. 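Active includes both protection and sensitisation; some change values fall well beyond the stated -50 to +50 range.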 Reagents against one gene are numbered here. Not given: the amount of reagent.

The first 2 entries, to show the layout:
no.	Gene	reagent no.	two-siRNA summed score (-2 to +2)	mean protection from cisplatin (shift in death) (%)	protection from cisplatin (shift in death), siRNA C (%)	protection from cisplatin (shift in death), siRNA D (%)	Call
1	IL1RN	1	-1	4	22.4	-14.5	inactive
2	ZC2HC1A	1	0	5.5	-2.1	13.1	inactive

Results, from the start:
no.	Gene	reagent no.	two-siRNA summed score (-2 to +2)	mean protection from cisplatin (shift in death) (%)	protection from cisplatin (shift in death), siRNA C (%)	protection from cisplatin (shift in death), siRNA D (%)	Call
1	IL1RN	1	-1	4	22.4	-14.5	inactive
2	ZC2HC1A	1	0	5.5	-2.1	13.1	inactive
3	LOC440156	1	0	9.8	6.4	13.2	inactive
4	CTBP2	1	0	17	20.9	13.2	inactive
5	FCRL5	1	0	6.2	13.8	-1.3	inactive
6	CDCA5	1	0	-5.2	-14	3.6	inactive
7	CDCA5	2	0	1.3	7.7	-5.1	inactive
8	SLC1A1	1	0	0.5	8.7	-7.6	inactive
9	DND1	1	0	3	4.2	1.8	inactive
10	B4GALNT3	1	0	-12.5	-18.5	-6.6	inactive
11	CCT5	1	0	-26.5	-9.3	-43.7	inactive
12	LOC441994	1	0	0.3	-4.4	5	inactive
13	PAXX	1	0	-0.3	4.5	-5.1	inactive
14	CCBE1	1	0	3.8	7.6	0	inactive
15	ZNF426	1	0	10.7	13.1	8.4	inactive
16	OC90	1	0	2.5	3.4	1.6	inactive
17	IFITM3	1	0	2.6	8.9	-3.8	inactive
18	PPP1R14A	1	0	15	16.9	13.2	inactive
19	SMCO4	1	0	5.1	1.9	8.3	inactive
20	HSD17B7P2	1	0	14.4	42	-13.2	inactive
21	GCC1	1	1	1.2	-14.6	17.1	inactive
22	PIWIL1	1	0	-0.4	12.8	-13.6	inactive
23	FNDC1	1	0	7.9	13.7	2	inactive
24	LOC440972	1	0	10.8	22.3	-0.8	inactive
25	CREBBP	1	0	3.7	5	2.5	inactive
26	LOC388420	1	0	9.3	16.1	2.6	inactive
27	LRRC37A	1	0	16.4	-2.6	35.3	inactive
28	HMGCS1	1	0	5.7	-8.3	19.8	inactive
29	DPYD	1	0	-3.6	11.5	-18.7	inactive
30	LOC400799	1	0	10.9	5.8	15.9	inactive
31	LOC440084	1	0	5.3	6.9	3.8	inactive
32	WDR74	1	0	-6.1	-13.9	1.7	inactive
33	COBLL1	1	1	13.3	7	19.6	inactive
34	FBXW4P1	1	-1	-20.3	-37	-3.6	inactive
35	PPARD	1	-1	-18.4	-46.9	10.2	inactive
36	PSMD12	1	1	18.3	17.3	19.2	inactive
37	ZNF354B	1	0	-1.9	1.1	-5	inactive
38	CAMKMT	1	0	7.8	4.7	10.9	inactive
39	ZHX1	1	0	2.6	9.7	-4.5	inactive
40	ZHX1	2	0	13.7	16.9	10.5	inactive
41	ELOVL4	1	0	-0.6	-0.6	-0.5	inactive
42	DYNC2I1	1	0	0.7	-5.1	6.5	inactive
43	LOC400865	1	0	1.8	7.6	-4	inactive
44	ZNF182	1	0	-5.3	-12.7	2.1	inactive
45	CLDN12	1	0	8.5	12	5.1	inactive
46	HBD	1	0	1	-5.5	7.4	inactive
47	YWHAQ	1	-1	-17.4	-8.2	-26.5	inactive
48	FAM20B	1	0	12.2	11.7	12.7	inactive
49	TMIGD2	1	0	2.9	5.1	0.7	inactive
50	C6orf89	1	0	9.6	10.6	8.6	inactive
51	PNMA6A	1	0	3.6	1.3	6	inactive
52	LOC440087	1	0	-2.2	-5.9	1.5	inactive
53	GIMAP2	1	0	8.2	6.7	9.8	inactive
54	ZNF280A	1	1	20.4	18.3	22.4	inactive
55	ZNF84	1	1	9.1	15.1	3	inactive
56	TMPRSS15	1	0	3.7	23.5	-16	inactive
57	DCLK3	1	0	15.4	8.2	22.7	inactive
